The other results are listed elsewhere or left out.
target: OsWRKY34 (Oryza sativa, UniProt Q0JBA9 1-250); test: protein-binding microarray (RPBM); PBS, 2% BSA, 51.3 ng/ul salmon testes DNA, 50 uM zinc acetate, 200 nM TF, 25 C, 1 h; high values mean tight binding; conditions: protein: recombinant; tags: N-terminal polyhistidine and DsRed monomer fusion (pET32a); label: CyDye5-dUTP incorporated in the synthesized complementary strand; 3' TTTTT single-stranded linker to array surface; dsDNA, one strand shown
How it was run: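 The binding signal for each feature is its fluorescence intensity in arbitrary units. An Axon 4000B scanner was used to read a custom Agilent array that had been made double-stranded with Cy5-dUTP primer extension, blocked with 2% BSA, incubated at 25 °C for 1 h with 200 nM protein in PBS, 2% BSA, salmon testes DNA and 50 µM zinc acetate, and washed. The protein was an N-terminal polyhistidine–DsRed transcription factor fusion from E. coli BL21-CodonPlus, purified on Ni–NTA.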

Amino acid sequences for entries named in this document (tags omitted).
UniProt Q0JBA9, entry or part of it: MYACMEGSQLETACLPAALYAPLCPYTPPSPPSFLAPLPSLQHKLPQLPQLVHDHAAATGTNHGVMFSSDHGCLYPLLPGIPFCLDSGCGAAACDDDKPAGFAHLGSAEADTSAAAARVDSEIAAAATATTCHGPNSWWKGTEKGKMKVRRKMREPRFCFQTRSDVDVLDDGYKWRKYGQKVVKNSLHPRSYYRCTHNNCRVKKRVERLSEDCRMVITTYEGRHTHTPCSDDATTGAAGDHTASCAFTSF

Row | Sequence | binding signal
1 | ATCTCATCCTTCCCCAACCTTTCTCTTCTCCTTGAACACACGGAGTCACCTAGTGCAG | 11100 fluorescence intensity (a.u.)
2 | CCTTTGTCGTCCTGCAACCATCCAACCCAATCTTCATTTTCGGAGTCACCTAGTGCAG | 8170 fluorescence intensity (a.u.)
3 | TTGCATTTTGTCGATCCCAATTCCCAACTGCTCACTGATTCGGAGTCACCTAGTGCAG | 9280 fluorescence intensity (a.u.)
4 | AACTACATCTTACAATTAACACTACTGTCTATGTCTCAATCGGAGTCACCTAGTGCAG | 11500 fluorescence intensity (a.u.)
5 | CCTCGTGCTCTTCCCATCCGCGACTCCAAAATTCCCGTCCCGGAGTCACCTAGTGCAG | 8590 fluorescence intensity (a.u.)
6 | ATATAACCGGCTACTGTATTCCTTTTTTTGATTTTTCTTTCGGAGTCACCTAGTGCAG | 9450 fluorescence intensity (a.u.)
7 | GTTGACCTGTGTGTGTCTATATCCTCATCTCCCAACTTCCCGGAGTCACCTAGTGCAG | 8910 fluorescence intensity (a.u.)
8 | GACGTTCGATTTTTTCTGCTGCGGGGATGGGTACGGGGTGCGGAGTCACCTAGTGCAG | 14800 fluorescence intensity (a.u.)
9 | GCCTTCCTTTTGGTCGTCGTCGTCTTCGTACGTTGGCCTCCGGAGTCACCTAGTGCAG | 9500 fluorescence intensity (a.u.)
10 | TGTCTCATTTTTCTATATGTTGTTTGGTGTGCCTTGAGAACGGAGTCACCTAGTGCAG | 9110 fluorescence intensity (a.u.)
11 | ATTCCTTATATGCCATTGAAATTTGGTCTGGTCCTTGATACGGAGTCACCTAGTGCAG | 9660 fluorescence intensity (a.u.)
12 | AGTGTGGTGGCAATTTTTCAAAAAAAAAACCCTCCGTTGCCGGAGTCACCTAGTGCAG | 8070 fluorescence intensity (a.u.)
13 | CAATTCGGCCATCCTTGATCACATAAACACAAGAAAAACACGGAGTCACCTAGTGCAG | 8620 fluorescence intensity (a.u.)
14 | AGGCCCATTTAAGCCCACGTTTCTCTTGTCCTCAACCCCACGGAGTCACCTAGTGCAG | 8980 fluorescence intensity (a.u.)
15 | TTGTTGTAATTGATATATGGGTCTACGGTTTTTATTATTTCGGAGTCACCTAGTGCAG | 10400 fluorescence intensity (a.u.)
16 | AATTTTCTTGTCCTTGTACTCCCCGATTTCATATTCTAAACGGAGTCACCTAGTGCAG | 10100 fluorescence intensity (a.u.)
17 | TTGGTTAGTTGCCACTCTCTCTCGCCGTGACCCTTTTTTACGGAGTCACCTAGTGCAG | 20600 fluorescence intensity (a.u.)
18 | AATTTTTTTCATTAGTGACATGGTTCAAATCTTAACATCCCGGAGTCACCTAGTGCAG | 8390 fluorescence intensity (a.u.)
19 | CACTCTCCCGTGCGCTTTCTTGATCTCGTTGAATTCCGCGCGGAGTCACCTAGTGCAG | 15000 fluorescence intensity (a.u.)
20 | TGCCTGCATGCCGCCTCTCGCATGTATTGTGTTATTTTGGCGGAGTCACCTAGTGCAG | 8990 fluorescence intensity (a.u.)
21 | TATCAGTTCCGTGATATTGGGCGGGATGTGGATGTTGAGTCGGAGTCACCTAGTGCAG | 10900 fluorescence intensity (a.u.)

An excerpt of these results, tab-delimited.
Row	Sequence	binding signal
10	TGTCTCATTTTTCTATATGTTGTTTGGTGTGCCTTGAGAACGGAGTCACCTAGTGCAG	9110 fluorescence intensity (a.u.)
11	ATTCCTTATATGCCATTGAAATTTGGTCTGGTCCTTGATACGGAGTCACCTAGTGCAG	9660 fluorescence intensity (a.u.)
12	AGTGTGGTGGCAATTTTTCAAAAAAAAAACCCTCCGTTGCCGGAGTCACCTAGTGCAG	8070 fluorescence intensity (a.u.)
13	CAATTCGGCCATCCTTGATCACATAAACACAAGAAAAACACGGAGTCACCTAGTGCAG	8620 fluorescence intensity (a.u.)

Further results follow.

Row | Sequence | binding signal
22 | CCGGTGTGTTGTATTAAGTGGTATTTTATCCGAACCCAATCGGAGTCACCTAGTGCAG | 10800 fluorescence intensity (a.u.)
23 | CTCGCATTATCTTCTTCCCCAATTTGCGCCGCTACTAGTACGGAGTCACCTAGTGCAG | 8120 fluorescence intensity (a.u.)
24 | CAGAATCGCAGCCATATCTTCCCTTGTCCATCCGCCAACGCGGAGTCACCTAGTGCAG | 8820 fluorescence intensity (a.u.)
25 | ACATCACTTACCAATAATCACTGACCATGCACATTTTCGACGGAGTCACCTAGTGCAG | 8780 fluorescence intensity (a.u.)
26 | CACATTTACATTTGGTTCACCGCCGGAATAAACTGTACCACGGAGTCACCTAGTGCAG | 8330 fluorescence intensity (a.u.)
27 | CCTTGTTTTGCTTTTCTTTCTTCATGAATGCATTCTCTCACGGAGTCACCTAGTGCAG | 9860 fluorescence intensity (a.u.)
28 | TTGACCCCGTATACGATCATCTGTTAGCTACCGTATATCCCGGAGTCACCTAGTGCAG | 9040 fluorescence intensity (a.u.)
29 | AGCTAACGTTTCAGTCGCCTTCTTTCTGTATAGCACCACTCGGAGTCACCTAGTGCAG | 8540 fluorescence intensity (a.u.)
30 | GTGATTATTTCGACAGTGTTCATATTGTTTATCCCCTATTCGGAGTCACCTAGTGCAG | 9180 fluorescence intensity (a.u.)
31 | TCACTTTTTTGTTAATATTTTTGTTGTCATTTTACTATTTCGGAGTCACCTAGTGCAG | 9060 fluorescence intensity (a.u.)
32 | CTCCTCGCCGTCACCTCGATCGGCCCGTCAATCTGTTCTCCGGAGTCACCTAGTGCAG | 8080 fluorescence intensity (a.u.)
33 | ATTTCCACGTCGTCTGTTATTTTGTGCTGCTTCTCTCTTGCGGAGTCACCTAGTGCAG | 11200 fluorescence intensity (a.u.)
34 | TACATGTTAAATCGATTCCAGCTGCCAGCATAATCACATTCGGAGTCACCTAGTGCAG | 8570 fluorescence intensity (a.u.)
35 | GACTTGATAATTACCTTATTCTGTGTTCTGTGATAGCCTTCGGAGTCACCTAGTGCAG | 9420 fluorescence intensity (a.u.)
36 | TGCATATTCTTTTCTCTGTTTCTTCCTTGCAACAAAAATACGGAGTCACCTAGTGCAG | 8480 fluorescence intensity (a.u.)
37 | TGTTCCTCCACGTCGCTCCGCCGCTCCGCCCGCCTTGCTTCGGAGTCACCTAGTGCAG | 10900 fluorescence intensity (a.u.)
38 | CCTCTTCCGAGCTGTCTCCCATGACACCACCGCCGCCGCCCGGAGTCACCTAGTGCAG | 10200 fluorescence intensity (a.u.)
39 | GTTGTTGCCGCGATGCTTGGACTCTCTATTCTTCTCTTGCCGGAGTCACCTAGTGCAG | 8500 fluorescence intensity (a.u.)
40 | TGTTTTGTGGGGAGGGGTGTACATATACAACTTAGTACTCCGGAGTCACCTAGTGCAG | 20300 fluorescence intensity (a.u.)
41 | AGCAGCAGTTAGCATCTCCTTTATGCCTCCTTTATGCTTTCGGAGTCACCTAGTGCAG | 9940 fluorescence intensity (a.u.)
42 | CACTTATCCATCCGCTGACACCTGCACAAACAAACCAGTTCGGAGTCACCTAGTGCAG | 8970 fluorescence intensity (a.u.)

From publication PMC7819943, “Rice protein-binding microarrays: a tool to detect cis-acting elements near promoter regions in rice”
